Results taken from patent US20100240581A1, “SELECTIVE PROTEASOME INHIBITORS FOR TREATING DIABETES” (The Trustees of Columbia University in the City of New York, priority 2006, published 2010).
Some entries share one result that the patent states for a list of compounds.

Tested on: male C57BL/Ks db/db mice
Test: Blood glucose in db/db mice (dietary curcumin or single i.p. injection)
Format: in vivo, mouse
Details: single i.p. injection, epoxomicin 0.1 mg/kg or celastrol 3 mg/kg
From the text: This translated into a daily consumption by the mice of roughly 1.0 to 1.5 g/kg/day.
Male C57BU6J mice gradually develop obesity and moderate diabetes when placed on high-fat diets, a process quite analogous to that in humans. […] However, the loss of leptin effect on the C57BL/Ks background is not compensated for by β-cell hyperplasia and hyperinsulinemia. At a very young age these mice become severely hyperglycemic, hyperphagic, and polydipsic. As they mature, they start to lose weight, develop nephropathy, and ultimately die around age 40 weeks from diabetic complications.
This effect was noted to last for at least 48 hours post-injection. Mice receiving vehicle in the celastrol and epoxomicin experiments were food entrained to the treatment group to avoid any acute effects on glucose levels from differences in food intake.

In the case of `CC[C@H](C)[C@H](NC(=O)[C@H]([C@@H](C)CC)N(C)C(C)=O)C(=O)N[C@H](C(=O)N[C@@H](CC(C)C)C(=O)[C@@]1(C)CO1)[C@@H](C)O` [epoxomicin], the “duration of correction of hyperglycemia post-injection” value is reported as “at least 48 hours”.
